Laboratory results taken from publication doi:10.1101/019471.
Results are given in words; binding and its absence hold for the method and conditions named. In cells and extracts the contact can be indirect. Some binding calls cover weakened binding; strength is not graded here.

Sequences of proteins named here, by UniProt entry; tags and fusion partners are left off. Residues count along the entry.
UniProt Q9FL28, residues 24-1173: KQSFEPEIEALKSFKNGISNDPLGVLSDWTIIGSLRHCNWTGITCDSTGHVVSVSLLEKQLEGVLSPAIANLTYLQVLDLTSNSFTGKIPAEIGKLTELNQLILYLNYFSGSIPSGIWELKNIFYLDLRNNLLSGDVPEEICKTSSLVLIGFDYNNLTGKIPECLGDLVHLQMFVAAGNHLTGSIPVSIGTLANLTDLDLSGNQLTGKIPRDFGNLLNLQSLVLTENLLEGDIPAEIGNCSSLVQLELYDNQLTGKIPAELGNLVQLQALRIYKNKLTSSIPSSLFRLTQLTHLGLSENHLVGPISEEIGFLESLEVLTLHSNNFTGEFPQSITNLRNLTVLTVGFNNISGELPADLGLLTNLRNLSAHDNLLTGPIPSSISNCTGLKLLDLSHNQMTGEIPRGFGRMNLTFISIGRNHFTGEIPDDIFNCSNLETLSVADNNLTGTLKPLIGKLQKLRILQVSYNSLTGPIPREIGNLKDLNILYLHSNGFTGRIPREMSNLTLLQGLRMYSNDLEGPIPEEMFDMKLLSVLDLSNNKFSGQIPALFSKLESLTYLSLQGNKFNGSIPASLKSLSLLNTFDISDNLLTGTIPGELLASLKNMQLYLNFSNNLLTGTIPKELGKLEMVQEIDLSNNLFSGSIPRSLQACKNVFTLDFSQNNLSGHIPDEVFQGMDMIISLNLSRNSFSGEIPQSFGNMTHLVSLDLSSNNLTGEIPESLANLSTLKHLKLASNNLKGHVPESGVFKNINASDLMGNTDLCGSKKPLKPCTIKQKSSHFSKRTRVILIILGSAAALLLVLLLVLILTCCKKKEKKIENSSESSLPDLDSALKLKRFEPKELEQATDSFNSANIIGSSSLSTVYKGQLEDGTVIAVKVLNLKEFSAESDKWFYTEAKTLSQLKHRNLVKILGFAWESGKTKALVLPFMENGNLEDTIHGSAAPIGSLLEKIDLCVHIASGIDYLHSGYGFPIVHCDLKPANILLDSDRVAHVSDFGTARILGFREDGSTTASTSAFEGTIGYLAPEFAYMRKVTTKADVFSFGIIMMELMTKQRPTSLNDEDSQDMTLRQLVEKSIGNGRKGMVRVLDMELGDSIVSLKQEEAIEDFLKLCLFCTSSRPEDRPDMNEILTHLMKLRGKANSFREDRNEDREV

Biological target: FLS2-YFPn/c (UniProt Q9FL28)
Test: split reporter

- binding: binds
Substance: FLS2-YFPn/c (from UniProt Q9FL28 24-1173) (receptor)
